Test results as given in publication PMC3338797.
Changes are numbered by the printed parent chain. These are yes or no findings as the source states them, for the method shown. Binding seen in cells or lysates may run through a third protein. Some binding calls cover weakened binding; strength is not graded here. For part of these data: Where a sequence is shown, tags or fusion partners need not be part of it.

Amino acid sequences for entries named in this document (tags omitted). A change or cut given only in a name is not applied to a line headed by its entry. Chains listed by the source or under a name are the forms on record and can include a tag or linker.
Flag-tagged c-Abl, wild type (P00519, form named): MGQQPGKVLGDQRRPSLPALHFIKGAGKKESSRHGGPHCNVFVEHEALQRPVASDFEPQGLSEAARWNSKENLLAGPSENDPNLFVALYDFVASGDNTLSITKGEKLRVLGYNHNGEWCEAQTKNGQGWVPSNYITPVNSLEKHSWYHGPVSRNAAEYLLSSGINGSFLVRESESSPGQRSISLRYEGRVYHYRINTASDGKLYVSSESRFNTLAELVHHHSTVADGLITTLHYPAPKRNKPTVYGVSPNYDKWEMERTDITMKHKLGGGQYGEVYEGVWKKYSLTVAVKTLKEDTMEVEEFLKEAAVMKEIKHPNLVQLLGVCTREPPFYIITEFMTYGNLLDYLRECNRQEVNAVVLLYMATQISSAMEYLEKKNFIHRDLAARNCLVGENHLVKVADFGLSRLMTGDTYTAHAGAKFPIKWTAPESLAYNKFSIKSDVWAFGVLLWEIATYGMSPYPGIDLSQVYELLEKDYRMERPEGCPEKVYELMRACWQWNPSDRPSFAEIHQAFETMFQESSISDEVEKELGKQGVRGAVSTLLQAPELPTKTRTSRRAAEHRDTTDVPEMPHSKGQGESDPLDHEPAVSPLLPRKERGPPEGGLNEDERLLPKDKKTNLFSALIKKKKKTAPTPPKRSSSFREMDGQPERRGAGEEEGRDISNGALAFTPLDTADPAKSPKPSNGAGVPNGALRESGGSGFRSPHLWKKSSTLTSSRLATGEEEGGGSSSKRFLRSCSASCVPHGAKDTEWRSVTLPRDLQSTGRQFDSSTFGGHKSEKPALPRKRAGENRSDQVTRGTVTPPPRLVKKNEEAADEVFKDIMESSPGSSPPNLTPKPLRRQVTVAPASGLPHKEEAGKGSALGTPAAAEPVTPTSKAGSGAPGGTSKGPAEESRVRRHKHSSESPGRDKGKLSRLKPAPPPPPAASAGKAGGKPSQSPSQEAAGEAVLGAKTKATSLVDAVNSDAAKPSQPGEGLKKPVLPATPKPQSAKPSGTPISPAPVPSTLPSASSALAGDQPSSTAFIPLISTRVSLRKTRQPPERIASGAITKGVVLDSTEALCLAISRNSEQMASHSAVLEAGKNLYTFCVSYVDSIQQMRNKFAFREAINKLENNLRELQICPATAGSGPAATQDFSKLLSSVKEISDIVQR
myc-tagged Nedd4.2, wild type (Q96PU5-6, form named): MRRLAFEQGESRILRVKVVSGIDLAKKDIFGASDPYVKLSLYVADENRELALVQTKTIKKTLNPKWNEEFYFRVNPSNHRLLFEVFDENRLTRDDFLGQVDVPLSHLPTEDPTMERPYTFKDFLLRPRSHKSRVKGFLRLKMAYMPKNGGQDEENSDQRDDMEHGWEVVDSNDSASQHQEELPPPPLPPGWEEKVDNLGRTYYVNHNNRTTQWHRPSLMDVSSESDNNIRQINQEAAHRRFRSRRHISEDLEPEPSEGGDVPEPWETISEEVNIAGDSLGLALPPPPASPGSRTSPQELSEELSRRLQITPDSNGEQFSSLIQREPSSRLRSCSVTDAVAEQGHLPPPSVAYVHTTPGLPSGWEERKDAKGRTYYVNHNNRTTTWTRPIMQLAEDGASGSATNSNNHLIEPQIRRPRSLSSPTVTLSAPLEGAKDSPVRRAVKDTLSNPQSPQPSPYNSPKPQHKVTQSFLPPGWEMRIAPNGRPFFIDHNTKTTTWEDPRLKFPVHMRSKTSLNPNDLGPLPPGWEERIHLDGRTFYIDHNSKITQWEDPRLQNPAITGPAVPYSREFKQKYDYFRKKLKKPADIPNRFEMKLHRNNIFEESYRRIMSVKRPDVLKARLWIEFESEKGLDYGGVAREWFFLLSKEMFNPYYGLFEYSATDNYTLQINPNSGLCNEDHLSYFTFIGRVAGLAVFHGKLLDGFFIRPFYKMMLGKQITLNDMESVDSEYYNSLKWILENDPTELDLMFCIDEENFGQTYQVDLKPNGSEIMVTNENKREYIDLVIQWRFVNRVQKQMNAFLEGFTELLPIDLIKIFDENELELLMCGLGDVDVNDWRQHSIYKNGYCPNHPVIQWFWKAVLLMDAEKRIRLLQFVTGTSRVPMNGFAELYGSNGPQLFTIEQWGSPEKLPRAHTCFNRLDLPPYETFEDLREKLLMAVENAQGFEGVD

T1: Flag-tagged AMOTL1 (Angiomotin-like 1), wild type (human) (UniProt Q8IY63)
T1 sequence: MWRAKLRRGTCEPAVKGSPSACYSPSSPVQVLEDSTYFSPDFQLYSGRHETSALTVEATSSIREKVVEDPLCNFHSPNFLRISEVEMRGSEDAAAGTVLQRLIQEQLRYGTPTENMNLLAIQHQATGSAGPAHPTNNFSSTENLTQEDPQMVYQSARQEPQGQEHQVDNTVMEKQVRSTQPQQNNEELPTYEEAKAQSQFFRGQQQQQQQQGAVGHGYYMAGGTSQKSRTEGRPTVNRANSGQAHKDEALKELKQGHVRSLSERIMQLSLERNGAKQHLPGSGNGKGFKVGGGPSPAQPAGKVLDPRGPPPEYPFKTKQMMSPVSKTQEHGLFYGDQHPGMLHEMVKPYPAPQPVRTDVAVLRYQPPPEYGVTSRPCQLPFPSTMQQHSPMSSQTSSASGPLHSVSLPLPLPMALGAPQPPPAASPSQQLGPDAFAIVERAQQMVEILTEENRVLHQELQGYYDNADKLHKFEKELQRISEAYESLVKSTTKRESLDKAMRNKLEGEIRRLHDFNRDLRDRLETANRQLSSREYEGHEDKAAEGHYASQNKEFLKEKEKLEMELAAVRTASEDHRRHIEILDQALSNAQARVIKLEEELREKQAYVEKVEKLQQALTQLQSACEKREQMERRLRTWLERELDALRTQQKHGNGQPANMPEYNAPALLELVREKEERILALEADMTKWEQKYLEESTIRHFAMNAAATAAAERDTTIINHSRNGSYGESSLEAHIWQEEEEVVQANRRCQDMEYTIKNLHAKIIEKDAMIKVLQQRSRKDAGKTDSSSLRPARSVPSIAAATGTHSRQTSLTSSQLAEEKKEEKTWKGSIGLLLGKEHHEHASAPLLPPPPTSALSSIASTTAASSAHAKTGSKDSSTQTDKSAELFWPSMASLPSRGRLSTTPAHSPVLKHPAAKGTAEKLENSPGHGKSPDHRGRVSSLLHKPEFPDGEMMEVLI

T2: Flag-tagged AMOTL1^310–313A/367–370A (human) (UniProt Q8IY63)
T2 sequence: T1 sequence with P310A, P311A, E312A, Y313A, P367A, P368A, E369A, Y370A

B1: endogenous AMOTL1 (protein, UniProt Q8IY63 1-956)
chain: T1 sequence
B2: Flag-tagged AMOTL1^310–313A (protein, UniProt Q8IY63 1-956)
chain: T1 sequence with P310A, P311A, E312A, Y313A
B3: Flag-tagged AMOTL1^367–370A (protein, UniProt Q8IY63 1-956)
chain: T1 sequence with P367A, P368A, E369A, Y370A
B4: Flag-tagged AMOTL1^310–313A/367–370A (protein, UniProt Q8IY63 1-956)
chain: T1 sequence with P310A, P311A, E312A, Y313A, P367A, P368A, E369A, Y370A

Columns and labels:
[1] = biological target: T1, Flag-tagged AMOTL1 (Angiomotin-like 1), wild type (human); assay: co-IP; HEK293T cells co-transfected; lysis buffer 20 mM Tris pH 7.5, 1% Triton X-100, 50 mM NaCl, 50 mM NaF, 15 mM Na4P2O7, 0.1 mM EDTA; lysate 1 h at 4°C with anti-Flag M2 resin; Western blot of bound proteins
[2] = biological target: T2, Flag-tagged AMOTL1^310–313A/367–370A (human); assay: as above
[3] = biological target: Flag-tagged c-Abl, wild type (human) (UniProt P00519); assay: as above
[4] = biological target: endogenous YAP1 (human (endogenous in HEK293T)) (UniProt P46937); assay: co-IP; endogenous proteins in HEK293T lysates; precipitated and blotted with anti-AMOTL1, anti-YAP1 and anti-Nedd4.2 antibodies; anti-CEP164 as negative control
[5] = biological target: V5-tagged YAP1, wild type (human) (UniProt P46937); assay: co-IP; data not shown; YAP1 precipitated the single and double AMOTL1 PY mutants

| Molecule | binding [1] | binding [5] | further results |
| --- | --- | --- | --- |
| V5-tagged YAP1, wild type (from UniProt P46937 1-504) | binds | – | binding [2]: binds |
| V5-tagged YAP1 WW2 mutant (from UniProt P46937 1-504) | binds | – | – |
| myc-tagged Nedd4.2, wild type (from UniProt Q96PU5-6 1-947) (enzyme) | – | – | binding [3]: binds |
| V5-tagged YAP1 WW1 mutant (from UniProt P46937 1-504) | no binding | – | – |
| B1 | – | – | binding [4]: binds |
| B2 | – | binds | – |
| B3 | – | binds | – |
| B4 | – | binds | – |
